No constants are given. Whether binding was seen depends on the method and setting. Binding seen in cells or lysates may run through a third protein. Some entries that bind do so weakly or less than the wild type.
Tests used:
[1] = biological target: gelsolin (GSN), endogenous in mouse liver (mouse (endogenous in mouse liver)) (UniProt P13020); test: co-IP; endogenous proteins from liver tissue of mice on STD or MCD diet; IP with anti-GSN or anti-MDM2 antibody and protein G agarose beads overnight at 4 °C; IP buffer 20 mM Tris-HCl, 150 mM NaCl, 1 mM EDTA, 1% NP-40; IgG control
FLAG-GSN = FLAG-GSN (UniProt P13020); test: co-IP; 293T cells co-transfected with plasmids for GSN and MDM2, 24-48 h; IP buffer 20 mM Tris-HCl, 150 mM NaCl, 1 mM EDTA, 1% NP-40; protein G agarose beads and antibody overnight at 4 °C
[2] = biological target: MDM2, endogenous in mouse liver (mouse (endogenous in mouse liver)) (UniProt P23804); test: co-IP; endogenous proteins from liver tissue of mice on STD or MCD diet; IP with anti-GSN or anti-MDM2 antibody and protein G agarose beads overnight at 4 °C; IP buffer 20 mM Tris-HCl, 150 mM NaCl, 1 mM EDTA, 1% NP-40; IgG control

Protein sequences, listed by entry. Tags and fused reporters are not part of them. Residues count along the entry.
UniProt P13020, residues 26-780: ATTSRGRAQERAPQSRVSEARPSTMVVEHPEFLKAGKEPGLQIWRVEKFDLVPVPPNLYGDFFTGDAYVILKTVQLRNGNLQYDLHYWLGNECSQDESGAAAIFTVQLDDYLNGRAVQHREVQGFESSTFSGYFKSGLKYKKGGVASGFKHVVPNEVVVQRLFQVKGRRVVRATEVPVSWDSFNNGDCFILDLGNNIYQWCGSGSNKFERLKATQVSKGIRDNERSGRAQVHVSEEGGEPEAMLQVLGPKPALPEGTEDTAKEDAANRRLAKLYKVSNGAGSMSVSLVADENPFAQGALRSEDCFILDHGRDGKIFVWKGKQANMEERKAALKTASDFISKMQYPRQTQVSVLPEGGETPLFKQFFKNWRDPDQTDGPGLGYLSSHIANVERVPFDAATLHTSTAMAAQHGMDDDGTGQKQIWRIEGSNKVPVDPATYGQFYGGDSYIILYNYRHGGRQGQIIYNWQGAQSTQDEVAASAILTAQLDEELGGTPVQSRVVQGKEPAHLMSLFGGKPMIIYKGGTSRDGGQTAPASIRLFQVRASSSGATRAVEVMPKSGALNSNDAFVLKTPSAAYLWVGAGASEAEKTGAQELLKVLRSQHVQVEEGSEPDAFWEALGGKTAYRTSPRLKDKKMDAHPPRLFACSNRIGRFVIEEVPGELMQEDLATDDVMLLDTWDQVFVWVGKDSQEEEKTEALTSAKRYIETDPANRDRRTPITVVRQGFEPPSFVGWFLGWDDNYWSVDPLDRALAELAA
UniProt P23804: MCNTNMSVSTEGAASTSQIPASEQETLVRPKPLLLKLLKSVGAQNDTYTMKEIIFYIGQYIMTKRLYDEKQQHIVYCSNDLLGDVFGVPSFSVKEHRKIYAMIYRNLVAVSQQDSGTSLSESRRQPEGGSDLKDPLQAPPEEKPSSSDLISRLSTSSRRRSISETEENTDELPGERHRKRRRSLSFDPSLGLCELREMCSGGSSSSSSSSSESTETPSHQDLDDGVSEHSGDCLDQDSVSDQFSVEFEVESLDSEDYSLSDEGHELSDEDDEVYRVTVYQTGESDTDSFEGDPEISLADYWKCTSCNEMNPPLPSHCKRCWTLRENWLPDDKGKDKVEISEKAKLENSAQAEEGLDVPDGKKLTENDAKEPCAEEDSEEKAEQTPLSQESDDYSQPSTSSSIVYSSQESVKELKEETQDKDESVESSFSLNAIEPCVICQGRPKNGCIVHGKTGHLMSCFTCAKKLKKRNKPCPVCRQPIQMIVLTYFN

“MDM2, endogenous in mouse liver (from UniProt P23804 1-489)” was tested. Which binding [1] did it give?
The binding was “binds”.

With MYC-MDM2 (from UniProt P23804 1-489) as the substance, how does the binding (FLAG-GSN) read?
The binding was “binds”.

Which binding [2] does the source give for “gelsolin (GSN), endogenous in mouse liver (from UniProt P13020 26-780)” here?
Its binding is “binds”.
